From the supplement of paper PMC10849652
Some of the results follow.

Amino acid sequences for entries named in this document (tags omitted). A change or cut given only in a name is not applied to a line headed by its entry.
UniProt Q9H5N1: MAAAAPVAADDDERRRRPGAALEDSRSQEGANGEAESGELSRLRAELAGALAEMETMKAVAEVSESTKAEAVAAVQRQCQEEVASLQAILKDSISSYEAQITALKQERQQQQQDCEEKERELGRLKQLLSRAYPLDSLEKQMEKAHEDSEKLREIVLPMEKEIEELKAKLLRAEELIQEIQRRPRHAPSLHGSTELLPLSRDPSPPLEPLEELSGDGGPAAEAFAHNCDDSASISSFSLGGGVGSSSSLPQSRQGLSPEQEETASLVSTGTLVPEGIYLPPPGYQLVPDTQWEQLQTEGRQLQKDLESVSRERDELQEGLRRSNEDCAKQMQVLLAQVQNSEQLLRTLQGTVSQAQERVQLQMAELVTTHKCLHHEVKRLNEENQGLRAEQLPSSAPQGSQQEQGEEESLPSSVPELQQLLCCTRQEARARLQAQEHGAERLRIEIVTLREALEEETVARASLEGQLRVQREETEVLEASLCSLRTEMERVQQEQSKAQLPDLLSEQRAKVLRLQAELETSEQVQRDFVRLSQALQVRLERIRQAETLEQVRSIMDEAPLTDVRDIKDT
UniProt O60518: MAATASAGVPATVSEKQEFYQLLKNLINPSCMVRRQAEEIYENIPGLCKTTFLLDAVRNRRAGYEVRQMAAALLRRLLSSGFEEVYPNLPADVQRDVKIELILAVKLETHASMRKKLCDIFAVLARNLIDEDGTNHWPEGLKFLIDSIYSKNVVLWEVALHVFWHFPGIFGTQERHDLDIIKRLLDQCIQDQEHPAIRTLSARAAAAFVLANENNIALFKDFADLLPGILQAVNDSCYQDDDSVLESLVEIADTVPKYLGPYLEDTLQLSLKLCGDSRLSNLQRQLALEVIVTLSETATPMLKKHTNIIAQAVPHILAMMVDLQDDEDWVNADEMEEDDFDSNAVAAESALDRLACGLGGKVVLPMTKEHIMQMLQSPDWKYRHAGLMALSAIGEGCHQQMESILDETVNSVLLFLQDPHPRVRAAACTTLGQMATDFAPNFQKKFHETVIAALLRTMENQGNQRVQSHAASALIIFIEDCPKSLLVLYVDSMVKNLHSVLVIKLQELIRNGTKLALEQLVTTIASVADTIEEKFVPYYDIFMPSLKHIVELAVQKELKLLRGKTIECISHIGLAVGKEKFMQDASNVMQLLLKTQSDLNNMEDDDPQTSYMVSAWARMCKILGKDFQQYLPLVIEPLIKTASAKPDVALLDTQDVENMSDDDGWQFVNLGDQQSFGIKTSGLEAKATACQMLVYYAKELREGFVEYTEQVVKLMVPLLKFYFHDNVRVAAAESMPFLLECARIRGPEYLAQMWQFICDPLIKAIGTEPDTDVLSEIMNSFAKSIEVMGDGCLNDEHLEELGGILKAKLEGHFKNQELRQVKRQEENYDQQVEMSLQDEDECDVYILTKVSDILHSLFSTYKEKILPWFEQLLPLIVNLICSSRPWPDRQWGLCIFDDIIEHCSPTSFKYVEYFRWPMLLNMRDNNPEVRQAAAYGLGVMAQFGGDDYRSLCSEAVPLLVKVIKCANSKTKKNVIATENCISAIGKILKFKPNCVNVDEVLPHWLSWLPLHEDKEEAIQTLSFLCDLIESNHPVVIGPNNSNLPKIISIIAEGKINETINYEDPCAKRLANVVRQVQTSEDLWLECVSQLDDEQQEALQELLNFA
UniProt P54725: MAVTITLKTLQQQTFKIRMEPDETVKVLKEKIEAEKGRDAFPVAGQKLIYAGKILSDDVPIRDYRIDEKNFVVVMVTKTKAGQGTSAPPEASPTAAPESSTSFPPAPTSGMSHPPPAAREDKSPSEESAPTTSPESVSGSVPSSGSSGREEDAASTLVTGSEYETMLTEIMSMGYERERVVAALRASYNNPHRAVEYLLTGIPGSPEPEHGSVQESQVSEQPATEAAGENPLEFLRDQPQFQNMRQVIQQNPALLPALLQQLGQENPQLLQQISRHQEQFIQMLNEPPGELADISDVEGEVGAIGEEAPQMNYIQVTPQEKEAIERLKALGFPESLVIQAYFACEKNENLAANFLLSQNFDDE
UniProt P61106, whole entry, looked up: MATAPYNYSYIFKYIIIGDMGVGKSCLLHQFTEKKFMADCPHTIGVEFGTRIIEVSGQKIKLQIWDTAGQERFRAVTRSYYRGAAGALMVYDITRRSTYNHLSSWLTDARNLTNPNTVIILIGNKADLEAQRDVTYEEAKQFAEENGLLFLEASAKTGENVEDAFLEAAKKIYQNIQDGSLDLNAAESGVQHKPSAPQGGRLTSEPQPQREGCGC
UniProt Q9H0R6: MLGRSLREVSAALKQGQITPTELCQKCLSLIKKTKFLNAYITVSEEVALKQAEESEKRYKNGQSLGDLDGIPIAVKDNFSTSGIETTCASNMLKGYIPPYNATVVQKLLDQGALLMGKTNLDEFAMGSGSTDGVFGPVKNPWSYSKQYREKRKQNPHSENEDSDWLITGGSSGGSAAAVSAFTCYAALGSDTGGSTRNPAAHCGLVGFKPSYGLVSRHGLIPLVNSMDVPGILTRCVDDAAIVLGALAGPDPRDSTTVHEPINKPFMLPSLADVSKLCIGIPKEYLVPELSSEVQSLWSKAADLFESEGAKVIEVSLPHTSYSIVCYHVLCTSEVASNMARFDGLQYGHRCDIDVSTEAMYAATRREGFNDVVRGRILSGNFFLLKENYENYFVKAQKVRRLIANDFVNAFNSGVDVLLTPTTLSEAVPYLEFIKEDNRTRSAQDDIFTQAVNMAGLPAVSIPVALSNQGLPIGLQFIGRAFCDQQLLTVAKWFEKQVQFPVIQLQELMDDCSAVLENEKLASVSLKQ
UniProt P20340: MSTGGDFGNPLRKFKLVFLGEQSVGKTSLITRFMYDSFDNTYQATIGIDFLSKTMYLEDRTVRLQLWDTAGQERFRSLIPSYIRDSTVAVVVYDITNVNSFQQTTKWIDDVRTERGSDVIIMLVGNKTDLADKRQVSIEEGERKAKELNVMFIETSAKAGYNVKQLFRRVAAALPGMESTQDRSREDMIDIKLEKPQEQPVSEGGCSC
UniProt Q5HYI8: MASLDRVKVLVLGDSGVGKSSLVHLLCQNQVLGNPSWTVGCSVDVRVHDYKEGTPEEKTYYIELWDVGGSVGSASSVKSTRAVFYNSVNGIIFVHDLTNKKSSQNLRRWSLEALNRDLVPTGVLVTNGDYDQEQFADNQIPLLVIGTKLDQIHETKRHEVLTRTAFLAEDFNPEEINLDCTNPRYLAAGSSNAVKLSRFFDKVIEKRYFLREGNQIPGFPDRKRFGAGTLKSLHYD
UniProt P62491: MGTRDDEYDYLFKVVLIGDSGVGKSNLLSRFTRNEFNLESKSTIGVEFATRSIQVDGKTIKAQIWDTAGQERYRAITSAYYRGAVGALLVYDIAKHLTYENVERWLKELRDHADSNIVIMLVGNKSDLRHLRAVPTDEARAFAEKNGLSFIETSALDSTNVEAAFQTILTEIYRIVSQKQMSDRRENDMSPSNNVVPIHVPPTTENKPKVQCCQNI
UniProt Q96C36: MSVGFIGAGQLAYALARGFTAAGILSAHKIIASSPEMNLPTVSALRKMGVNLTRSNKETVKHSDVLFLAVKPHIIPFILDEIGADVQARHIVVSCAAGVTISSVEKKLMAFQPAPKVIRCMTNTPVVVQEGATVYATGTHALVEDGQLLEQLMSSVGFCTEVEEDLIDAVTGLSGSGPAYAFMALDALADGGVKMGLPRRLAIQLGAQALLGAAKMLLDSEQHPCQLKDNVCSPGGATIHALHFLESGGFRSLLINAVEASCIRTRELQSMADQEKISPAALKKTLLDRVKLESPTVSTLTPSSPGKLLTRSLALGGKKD
UniProt P61006: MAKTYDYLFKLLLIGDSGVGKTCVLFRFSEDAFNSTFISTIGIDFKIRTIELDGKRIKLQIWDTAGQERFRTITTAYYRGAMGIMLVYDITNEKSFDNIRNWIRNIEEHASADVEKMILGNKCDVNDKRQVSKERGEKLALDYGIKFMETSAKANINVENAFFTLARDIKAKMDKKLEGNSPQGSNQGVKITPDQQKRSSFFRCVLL
UniProt Q9UKM9: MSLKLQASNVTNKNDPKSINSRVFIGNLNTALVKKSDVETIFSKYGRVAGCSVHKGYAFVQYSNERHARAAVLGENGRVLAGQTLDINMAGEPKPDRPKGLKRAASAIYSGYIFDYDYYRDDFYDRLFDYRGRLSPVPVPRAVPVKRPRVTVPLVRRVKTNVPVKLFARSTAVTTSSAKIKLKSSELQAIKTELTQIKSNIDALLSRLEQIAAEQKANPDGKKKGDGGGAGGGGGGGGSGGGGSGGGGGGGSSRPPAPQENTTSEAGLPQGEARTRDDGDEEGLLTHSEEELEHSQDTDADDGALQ
UniProt P32322: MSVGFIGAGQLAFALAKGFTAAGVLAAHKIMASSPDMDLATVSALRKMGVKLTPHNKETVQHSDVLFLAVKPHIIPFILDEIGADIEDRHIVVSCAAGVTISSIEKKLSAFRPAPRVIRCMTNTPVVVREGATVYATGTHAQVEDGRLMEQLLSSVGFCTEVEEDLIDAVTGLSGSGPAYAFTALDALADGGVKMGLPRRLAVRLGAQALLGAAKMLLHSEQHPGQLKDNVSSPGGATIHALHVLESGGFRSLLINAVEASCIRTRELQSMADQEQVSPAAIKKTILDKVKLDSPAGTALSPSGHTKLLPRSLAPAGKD
UniProt P61018: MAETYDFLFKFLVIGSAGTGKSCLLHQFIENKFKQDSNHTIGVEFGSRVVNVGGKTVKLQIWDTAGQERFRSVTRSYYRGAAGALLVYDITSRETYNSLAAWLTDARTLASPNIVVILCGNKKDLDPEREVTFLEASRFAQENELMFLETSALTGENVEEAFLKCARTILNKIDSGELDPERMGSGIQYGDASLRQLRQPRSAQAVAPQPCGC

Tests used:
Assay in all cases: log2 fold change, soluble protein after heating vs DMSO (PISA); higher = thermal stabilisation; K562 lysate, 10 uM; active = over 0.2 and 3.5 SD of the protein, either way, in both replicates (recomputed)
ibrutinib = compound: C=CC(=O)N1CCC[C@@H](n2nc(-c3ccc(Oc4ccccc4)cc3)c3c(N)ncnc32)C1 [ibrutinib]
Outline: (§1)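 Following dounce homogenisation of K562 pellets in PBS pH 7.4 with 1 mM MgCl2, crude extract at 1 mg/mL protein was incubated for 30 min with 10 μM compound. Aliquots were then heated for 3 min over 48°C-58°C and pooled, NP-40 was added to 0.5% at 4°C, and soluble protein was recovered as the supernatant at 21,000xg for 90 min. Channel-sum-equalised TMTpro 16plex LC-MS/MS quantified this protein. Each value, from duplicates, is a log-two fold change in thermal stability relative to solvent controls.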

[1] = compound: CC(=O)c1cnc2ccc(-c3cc(Cl)c(O)c(Cl)c3)nc2c1N[C@H]1CC[C@H](CN(C)C)CC1
Outline: as §1

ralimetinib = compound: CC(C)(C)Cn1c(N)nc2ccc(-c3[nH]c(C(C)(C)C)nc3-c3ccc(F)cc3)nc21 [ralimetinib]
Outline: as §1

[2] = compound: CC(C)(O)CC(=O)NCCn1ccc2ncnc(Nc3ccc(Oc4cccc(C(F)(F)F)c4)c(Cl)c3)c21
Outline: as §1

[3] = compound: CC(C)C1=C2N=C(C=C(N2N=C1)NCC3=CC=CC=C3)NCCCCCCN
Outline: as §1

[4] = compound: CC1=C(C(CC(=O)N1)C2=CC=C(C=C2)C(F)(F)F)C(=O)NC3=C(C=C4C(=C3)C=NN4)F
Outline: as §1

[5] = compound: CC1=C(C2=C(C=C1)C(=O)C3=CC=CC=C3N2CCCN)C
Outline: as §1

[6] = compound: CC1=C(C=C(C=C1)NC(=O)C2=CC(=CC=C2)C(C)(C)C#N)NC3=CC4=C(C=C3)N=CN(C4=O)C
Outline: as §1

[7] = compound: CC1=C(C=C(C=C1)NC(=O)C2=CC(=CC=C2)N(C)C)NC(=O)C3=CC=C(C=C3)O
Outline: as §1

[8] = compound: CC1=CC=C(C=C1)SC2=C3C=C(SC3=CN=C2)C(=O)N
Outline: as §1

vemurafenib = compound: CCCS(=O)(=O)Nc1ccc(F)c(C(=O)c2c[nH]c3ncc(-c4ccc(Cl)cc4)cc23)c1F [vemurafenib]
Outline: as §1

[9] = compound: CCCS(=O)(=O)Nc1ccc(F)c(C(=O)c2c[nH]c3ncc(Cl)cc23)c1F
Outline: as §1

barasertib = compound: CCN(CCCOc1ccc2c(Nc3cc(CC(=O)Nc4cccc(F)c4)[nH]n3)ncnc2c1)CCOP(=O)(O)O [barasertib]
Outline: as §1

[10] = compound: CC[C@@H]1C(=O)N(C)c2cnc(Nc3ccc(C(=O)NC4CCN(C)CC4)cc3OC)nc2N1C1CCCC1
Outline: as §1

volasertib = compound: CC[C@@H]1C(=O)N(C)c2cnc(Nc3ccc(C(=O)N[C@H]4CC[C@H](N5CCN(CC6CC6)CC5)CC4)cc3OC)nc2N1C(C)C [volasertib]
Outline: as §1

[11] = compound: CCn1c(C(=O)N(C2CC2)C2CC2)cc2c3c(ncn3C)c(Nc3cc(C)n(C)n3)nc21
Outline: as §1

[12] = compound: CCn1cc(-c2ccnc3[nH]c(-c4cccc(CN(C)C)c4)cc23)c(-c2ccc(NC(=O)N(C)C)cc2)n1
Outline: as §1

[13] = compound: CN1CCC(CNc2ccc3ncc(-c4cccc(OC(F)(F)F)c4)n3n2)CC1
Outline: as §1

saracatinib = compound: CN1CCN(CCOc2cc(OC3CCOCC3)c3c(Nc4c(Cl)ccc5c4OCO5)ncnc3c2)CC1 [saracatinib]
Outline: as §1

sotrastaurin = compound: CN1CCN(c2nc(C3=C(c4c[nH]c5ccccc45)C(=O)NC3=O)c3ccccc3n2)CC1 [sotrastaurin]
Outline: as §1

Measured: log2 fold change

RABEP2 (UniProt Q9H5N1)
inactive: ibrutinib -0.013 | [1] 0.022 | ralimetinib 0.008 | [2] 0.023 | [3] 0.003 | [4] -0.027 | [5] -0.003 | [6] 0.046 | [7] 0.007 | [8] -0.014 | vemurafenib -0.054 | [9] 0.03 | barasertib 0.037 | [10] 0.036 | volasertib 0.014 | [11] 0 | [12] 0.127 | [13] -0.064 | saracatinib 0.049 | sotrastaurin 0.022

RANBP6 (UniProt O60518)
inactive: ibrutinib -0.034 | [1] -0.05 | ralimetinib 0.025 | [2] -0.066 | [3] -0.034 | [4] -0.005 | [5] -0.017 | [6] -0.009 | [7] 0.026 | [8] 0.009 | vemurafenib 0.008 | [9] 0.025 | barasertib 0.013 | [10] -0.016 | volasertib 0.013 | [11] 0.068 | [12] -0.045 | [13] 0.06 | saracatinib -0.038 | sotrastaurin 0.002

RAD23A (UniProt P54725)
inactive: ibrutinib 0.06 | [1] -0.01 | ralimetinib 0.057 | [2] 0.037 | [3] -0.045 | [4] 0.009 | [5] 0.027 | [6] 0.007 | [7] 0.018 | [8] -0.005 | vemurafenib -0.019 | [9] -0.016 | barasertib 0.131 | [10] 0.037 | volasertib 0.018 | [11] 0.028 | [12] -0.018 | [13] 0.032 | saracatinib 0.004 | sotrastaurin 0.006

RAB14 (UniProt P61106)
inactive: ibrutinib -0.018 | [1] 0 | ralimetinib -0.008 | [2] 0.004 | [3] 0.014 | [4] 0.018 | [5] 0.02 | [6] 0.058 | [7] -0.019 | [8] -0.013 | vemurafenib -0.001 | [9] -0.004 | barasertib 0.013 | [10] 0.024 | volasertib 0.012 | [11] -0.026 | [12] -0.095 | [13] 0.054 | saracatinib -0.002 | sotrastaurin -0.007

QRSL1 (UniProt Q9H0R6)
inactive: ibrutinib -0.171 | [1] -0.059 | ralimetinib 0.018 | [2] -0.064 | [3] 0.066 | [4] -0.003 | [5] -0.073 | [6] -0.041 | [7] 0.027 | [8] 0.076 | vemurafenib 0.134 | [9] 0.012 | barasertib 0.044 | [10] -0.004 | volasertib -0.057 | [11] 0.008 | [12] -0.178 | [13] -0.138 | saracatinib -0.056 | sotrastaurin 0.071

RAB6A isoform 4 (UniProt P20340)
inactive: ibrutinib 0.017 | [1] -0.013 | ralimetinib -0.025 | [2] 0.003 | [3] -0.001 | [4] 0.026 | [5] 0.06 | [6] -0.001 | [7] -0.004 | [8] -0.024 | vemurafenib 0.05 | [9] -0.04 | barasertib 0.056 | [10] 0.122 | volasertib 0.037 | [11] -0.023 | [12] -0.067 | [13] 0.028 | saracatinib 0.027 | sotrastaurin -0.004

RABL3 (UniProt Q5HYI8)
inactive: ibrutinib 0.017 | [1] 0.014 | ralimetinib 0.153 | [2] -0.05 | [3] -0.047 | [4] 0.021 | [5] -0.043 | [6] 0.003 | [7] -0.141 | [8] 0.014 | vemurafenib 0.043 | [9] 0.024 | barasertib 0.033 | [10] -0.072 | volasertib -0.045 | [11] 0.632 | [12] -0.045 | [13] -0.032 | saracatinib 0.018 | sotrastaurin 0.069

RAC2 (UniProt P15153)
inactive: ibrutinib 0.094 | [1] -0.04 | ralimetinib 0.07 | [2] -0.027 | [3] 0.047 | [4] -0.005 | [5] 0.017 | [6] -0.022 | [7] 0.045 | [8] -0.014 | vemurafenib 0.028 | [9] 0.034 | barasertib 0.054 | [10] 0.049 | volasertib -0.071 | [11] -0.001 | [12] -0.011 | [13] 0.008 | saracatinib 0.045 | sotrastaurin -0.058

RAB11A (UniProt P62491)
inactive: ibrutinib 0.167 | [1] -0.061 | ralimetinib 0.001 | [2] -0.035 | [3] -0.042 | [4] 0.032 | [5] -0.037 | [6] 0.001 | [7] -0.02 | [8] 0.012 | vemurafenib -0.007 | [9] 0.105 | barasertib 0.069 | [10] 0.046 | volasertib -0.057 | [11] -0.038 | [12] -0.018 | [13] -0.113 | saracatinib -0.011 | sotrastaurin 0.013

Copied from the results shown (2 entries):
RAB6A isoform 4 (UniProt P20340)
inactive: ibrutinib 0.017 | [1] -0.013 | ralimetinib -0.025 | [2] 0.003 | [3] -0.001 | [4] 0.026 | [5] 0.06 | [6] -0.001 | [7] -0.004 | [8] -0.024 | vemurafenib 0.05 | [9] -0.04 | barasertib 0.056 | [10] 0.122 | volasertib 0.037 | [11] -0.023 | [12] -0.067 | [13] 0.028 | saracatinib 0.027 | sotrastaurin -0.004

RABL3 (UniProt Q5HYI8)
inactive: ibrutinib 0.017 | [1] 0.014 | ralimetinib 0.153 | [2] -0.05 | [3] -0.047 | [4] 0.021 | [5] -0.043 | [6] 0.003 | [7] -0.141 | [8] 0.014 | vemurafenib 0.043 | [9] 0.024 | barasertib 0.033 | [10] -0.072 | volasertib -0.045 | [11] 0.632 | [12] -0.045 | [13] -0.032 | saracatinib 0.018 | sotrastaurin 0.069

Next records follow.

PYCR2 (UniProt Q96C36)
inactive: ibrutinib 0.012 | [1] 0.002 | ralimetinib -0.007 | [2] -0.032 | [3] -0.007 | [4] -0.026 | [5] 0.001 | [6] 0.013 | [7] -0.017 | [8] -0.016 | vemurafenib 0.004 | [9] -0.005 | barasertib 0.006 | [10] 0.036 | volasertib 0.016 | [11] -0.001 | [12] 0.099 | [13] 0.012 | saracatinib -0.012 | sotrastaurin -0.014

RAB8A (UniProt P61006)
inactive: ibrutinib -0.001 | [1] 0.002 | ralimetinib 0.024 | [2] 0.056 | [3] -0.041 | [4] 0.005 | [5] 0.015 | [6] -0.11 | [7] -0.021 | [8] 0.015 | vemurafenib -0.026 | [9] -0.044 | barasertib 0.042 | [10] -0.026 | volasertib 0.021 | [11] 0.04 | [12] -0.045 | [13] 0.056 | saracatinib -0.03 | sotrastaurin 0.02

RAC1 isoform 2 (UniProt P63000)
inactive: ibrutinib 0.103 | [1] 0.034 | ralimetinib 0 | [2] 0.104 | [3] -0.016 | [4] -0.018 | [5] -0.017 | [6] -0.086 | [7] -0.038 | [8] 0.039 | vemurafenib -0.03 | [9] 0.013 | barasertib -0.011 | [10] -0.056 | volasertib -0.007 | [11] 0.129 | [12] 0.225 | [13] -0.036 | saracatinib 0.019 | sotrastaurin 0.011

RABGAP1L isoform 3 (UniProt Q5R372)
inactive: ibrutinib 0.05 | [1] 0.01 | ralimetinib 0.057 | [2] 0.019 | [3] -0.019 | [4] 0.004 | [5] -0.03 | [6] 0.019 | [7] -0.004 | [8] 0.024 | vemurafenib -0.008 | [9] -0.004 | barasertib -0.018 | [10] -0.006 | volasertib -0.028 | [11] -0.011 | [12] -0.079 | [13] 0.059 | saracatinib 0.017 | sotrastaurin 0.002

RALY (UniProt Q9UKM9)
inactive: ibrutinib -0.013 | [1] -0.04 | ralimetinib 0.003 | [2] -0.023 | [3] 0.01 | [4] 0.051 | [5] -0.032 | [6] -0.02 | [7] 0.029 | [8] -0.015 | vemurafenib -0.008 | [9] 0.019 | barasertib -0.035 | [10] -0.123 | volasertib -0.027 | [11] -0.038 | [12] 0.009 | [13] -0.035 | saracatinib -0.017 | sotrastaurin 0.011

PYCR1 isoform 3 (UniProt P32322)
inactive: ibrutinib 0.015 | [1] 0 | ralimetinib 0.002 | [2] -0.02 | [3] -0.016 | [4] 0.009 | [5] -0.001 | [6] 0.001 | [7] -0.015 | [8] -0.043 | vemurafenib 0.015 | [9] 0.026 | barasertib -0.003 | [10] 0.019 | volasertib 0.026 | [11] 0.012 | [12] 0.052 | [13] -0.028 | saracatinib -0.022 | sotrastaurin -0.009

RAB4B isoform 2 (UniProt P61018)
inactive: ibrutinib 0.091 | [1] 0.007 | ralimetinib 0.007 | [2] -0.019 | [3] -0.035 | [4] 0.048 | [5] 0.034 | [6] -0.001 | [7] -0.061 | [8] 0.005 | vemurafenib -0.031 | [9] -0.006 | barasertib 0.104 | [10] -0.037 | volasertib 0.012 | [11] 0.026 | [12] -0.033 | [13] 0.045 | saracatinib 0.055 | sotrastaurin 0.044
